This note sets out measurements from paper PMC7909667.

The chains behind the UniProt entries cited, without tags or fusion partners. Residues count along the entry.
UniProt E9Q414, residues 28-4505: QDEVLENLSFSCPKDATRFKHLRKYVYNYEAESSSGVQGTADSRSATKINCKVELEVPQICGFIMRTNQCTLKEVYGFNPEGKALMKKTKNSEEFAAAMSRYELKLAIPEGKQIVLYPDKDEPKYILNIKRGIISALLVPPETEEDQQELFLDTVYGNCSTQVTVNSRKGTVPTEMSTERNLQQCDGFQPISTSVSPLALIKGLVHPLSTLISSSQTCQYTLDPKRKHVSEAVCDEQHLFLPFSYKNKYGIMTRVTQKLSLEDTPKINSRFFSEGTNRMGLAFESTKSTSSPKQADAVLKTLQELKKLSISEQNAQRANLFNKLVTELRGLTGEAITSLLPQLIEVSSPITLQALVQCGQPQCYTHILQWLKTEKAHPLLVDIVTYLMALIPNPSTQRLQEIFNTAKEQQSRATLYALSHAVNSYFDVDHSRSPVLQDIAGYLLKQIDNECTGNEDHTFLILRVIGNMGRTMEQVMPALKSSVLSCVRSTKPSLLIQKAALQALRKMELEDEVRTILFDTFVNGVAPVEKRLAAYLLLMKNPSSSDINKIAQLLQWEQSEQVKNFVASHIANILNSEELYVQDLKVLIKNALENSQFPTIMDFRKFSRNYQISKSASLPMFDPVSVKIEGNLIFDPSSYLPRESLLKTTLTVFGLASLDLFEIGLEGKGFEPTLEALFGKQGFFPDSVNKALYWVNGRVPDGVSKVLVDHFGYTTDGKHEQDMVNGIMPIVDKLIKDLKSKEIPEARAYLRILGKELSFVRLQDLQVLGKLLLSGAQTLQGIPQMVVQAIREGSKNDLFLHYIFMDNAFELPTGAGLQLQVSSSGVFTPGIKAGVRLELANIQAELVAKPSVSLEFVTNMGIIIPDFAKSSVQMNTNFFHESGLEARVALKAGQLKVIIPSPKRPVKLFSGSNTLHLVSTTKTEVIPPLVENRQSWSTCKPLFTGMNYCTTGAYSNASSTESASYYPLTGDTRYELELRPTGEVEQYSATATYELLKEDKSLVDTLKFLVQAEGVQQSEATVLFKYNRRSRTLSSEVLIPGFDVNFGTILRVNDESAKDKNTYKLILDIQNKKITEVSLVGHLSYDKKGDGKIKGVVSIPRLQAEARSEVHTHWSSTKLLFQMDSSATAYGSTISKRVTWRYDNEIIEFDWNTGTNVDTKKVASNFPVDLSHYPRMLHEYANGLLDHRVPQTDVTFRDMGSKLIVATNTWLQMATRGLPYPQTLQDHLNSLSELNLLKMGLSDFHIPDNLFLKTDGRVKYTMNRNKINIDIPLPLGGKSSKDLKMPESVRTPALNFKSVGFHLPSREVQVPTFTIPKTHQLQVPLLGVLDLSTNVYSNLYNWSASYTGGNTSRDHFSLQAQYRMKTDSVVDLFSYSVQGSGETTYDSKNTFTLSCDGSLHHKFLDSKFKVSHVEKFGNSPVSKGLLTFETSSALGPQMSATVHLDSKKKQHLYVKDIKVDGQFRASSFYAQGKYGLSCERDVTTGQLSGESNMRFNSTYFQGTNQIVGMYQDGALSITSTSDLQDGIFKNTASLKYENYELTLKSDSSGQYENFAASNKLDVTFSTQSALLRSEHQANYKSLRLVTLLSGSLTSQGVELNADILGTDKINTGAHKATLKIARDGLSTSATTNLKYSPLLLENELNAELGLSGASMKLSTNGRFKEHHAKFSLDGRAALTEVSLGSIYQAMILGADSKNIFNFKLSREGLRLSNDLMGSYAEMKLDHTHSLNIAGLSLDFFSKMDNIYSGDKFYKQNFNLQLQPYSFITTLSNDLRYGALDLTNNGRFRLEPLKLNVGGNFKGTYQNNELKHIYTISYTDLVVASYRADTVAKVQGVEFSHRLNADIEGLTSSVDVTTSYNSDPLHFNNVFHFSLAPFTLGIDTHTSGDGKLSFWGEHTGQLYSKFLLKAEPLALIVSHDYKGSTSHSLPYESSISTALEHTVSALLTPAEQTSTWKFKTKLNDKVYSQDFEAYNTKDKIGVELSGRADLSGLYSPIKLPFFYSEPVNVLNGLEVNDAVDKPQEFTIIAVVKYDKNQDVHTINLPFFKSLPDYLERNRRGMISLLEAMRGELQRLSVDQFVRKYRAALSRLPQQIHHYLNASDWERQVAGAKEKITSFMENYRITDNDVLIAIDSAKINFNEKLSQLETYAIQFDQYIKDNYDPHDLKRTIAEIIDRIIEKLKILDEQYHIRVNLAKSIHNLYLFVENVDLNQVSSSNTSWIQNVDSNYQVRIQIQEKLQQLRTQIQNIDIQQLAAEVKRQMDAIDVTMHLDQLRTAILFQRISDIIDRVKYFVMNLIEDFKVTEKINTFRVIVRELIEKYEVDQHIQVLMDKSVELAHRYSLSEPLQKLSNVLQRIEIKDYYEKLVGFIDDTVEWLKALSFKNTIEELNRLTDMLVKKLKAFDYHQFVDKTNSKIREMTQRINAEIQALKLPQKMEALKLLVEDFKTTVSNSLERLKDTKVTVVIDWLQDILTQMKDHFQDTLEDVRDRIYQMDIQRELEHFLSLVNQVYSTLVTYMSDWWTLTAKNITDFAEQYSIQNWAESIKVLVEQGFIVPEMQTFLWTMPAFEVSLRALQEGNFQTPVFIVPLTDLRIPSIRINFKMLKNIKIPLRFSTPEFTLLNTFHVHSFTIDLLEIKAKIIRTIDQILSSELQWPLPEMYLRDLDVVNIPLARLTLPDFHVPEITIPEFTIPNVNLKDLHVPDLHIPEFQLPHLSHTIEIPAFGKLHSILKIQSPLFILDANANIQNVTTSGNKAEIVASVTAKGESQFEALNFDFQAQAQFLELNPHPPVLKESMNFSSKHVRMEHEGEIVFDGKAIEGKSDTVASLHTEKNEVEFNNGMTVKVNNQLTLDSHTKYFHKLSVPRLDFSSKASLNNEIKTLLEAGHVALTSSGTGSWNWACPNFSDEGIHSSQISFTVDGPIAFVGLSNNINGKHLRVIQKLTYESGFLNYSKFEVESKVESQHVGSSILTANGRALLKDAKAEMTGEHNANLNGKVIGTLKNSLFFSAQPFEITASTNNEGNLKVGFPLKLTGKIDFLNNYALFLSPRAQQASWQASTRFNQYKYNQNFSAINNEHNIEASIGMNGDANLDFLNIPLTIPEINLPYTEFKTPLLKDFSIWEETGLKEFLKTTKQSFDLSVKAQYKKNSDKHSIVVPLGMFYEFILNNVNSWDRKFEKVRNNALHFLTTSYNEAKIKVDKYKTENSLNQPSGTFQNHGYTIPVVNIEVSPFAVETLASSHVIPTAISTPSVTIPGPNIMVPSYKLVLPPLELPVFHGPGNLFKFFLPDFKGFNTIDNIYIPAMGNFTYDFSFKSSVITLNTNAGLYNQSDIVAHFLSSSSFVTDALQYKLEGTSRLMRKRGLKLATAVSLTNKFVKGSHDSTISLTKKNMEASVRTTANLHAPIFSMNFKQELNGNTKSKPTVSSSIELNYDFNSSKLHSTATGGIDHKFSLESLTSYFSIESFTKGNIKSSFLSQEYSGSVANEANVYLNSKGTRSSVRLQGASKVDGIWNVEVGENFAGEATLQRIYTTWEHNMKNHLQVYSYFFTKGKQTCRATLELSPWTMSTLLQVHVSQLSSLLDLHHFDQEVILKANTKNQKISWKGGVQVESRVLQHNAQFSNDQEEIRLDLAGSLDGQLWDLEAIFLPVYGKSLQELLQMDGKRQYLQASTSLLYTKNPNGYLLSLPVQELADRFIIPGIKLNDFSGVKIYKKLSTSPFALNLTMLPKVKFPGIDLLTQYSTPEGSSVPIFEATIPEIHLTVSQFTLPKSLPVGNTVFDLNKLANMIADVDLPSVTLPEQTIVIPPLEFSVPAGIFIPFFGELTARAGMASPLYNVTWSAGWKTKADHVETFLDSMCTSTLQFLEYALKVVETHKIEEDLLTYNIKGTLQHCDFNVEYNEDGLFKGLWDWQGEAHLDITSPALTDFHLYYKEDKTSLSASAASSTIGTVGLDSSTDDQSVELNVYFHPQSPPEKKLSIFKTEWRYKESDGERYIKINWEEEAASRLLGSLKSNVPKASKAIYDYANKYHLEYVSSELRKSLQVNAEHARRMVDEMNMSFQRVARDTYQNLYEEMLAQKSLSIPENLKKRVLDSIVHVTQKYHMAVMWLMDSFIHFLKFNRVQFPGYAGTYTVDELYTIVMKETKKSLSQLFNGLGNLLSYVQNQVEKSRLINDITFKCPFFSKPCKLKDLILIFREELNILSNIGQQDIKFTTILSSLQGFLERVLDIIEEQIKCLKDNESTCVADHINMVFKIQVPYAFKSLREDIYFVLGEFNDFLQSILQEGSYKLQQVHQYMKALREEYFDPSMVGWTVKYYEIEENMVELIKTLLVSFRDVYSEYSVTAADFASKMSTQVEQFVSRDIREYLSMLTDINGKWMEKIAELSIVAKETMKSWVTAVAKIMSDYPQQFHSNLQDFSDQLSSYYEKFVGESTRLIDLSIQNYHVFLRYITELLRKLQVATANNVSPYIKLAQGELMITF
UniProt Q9UKV5: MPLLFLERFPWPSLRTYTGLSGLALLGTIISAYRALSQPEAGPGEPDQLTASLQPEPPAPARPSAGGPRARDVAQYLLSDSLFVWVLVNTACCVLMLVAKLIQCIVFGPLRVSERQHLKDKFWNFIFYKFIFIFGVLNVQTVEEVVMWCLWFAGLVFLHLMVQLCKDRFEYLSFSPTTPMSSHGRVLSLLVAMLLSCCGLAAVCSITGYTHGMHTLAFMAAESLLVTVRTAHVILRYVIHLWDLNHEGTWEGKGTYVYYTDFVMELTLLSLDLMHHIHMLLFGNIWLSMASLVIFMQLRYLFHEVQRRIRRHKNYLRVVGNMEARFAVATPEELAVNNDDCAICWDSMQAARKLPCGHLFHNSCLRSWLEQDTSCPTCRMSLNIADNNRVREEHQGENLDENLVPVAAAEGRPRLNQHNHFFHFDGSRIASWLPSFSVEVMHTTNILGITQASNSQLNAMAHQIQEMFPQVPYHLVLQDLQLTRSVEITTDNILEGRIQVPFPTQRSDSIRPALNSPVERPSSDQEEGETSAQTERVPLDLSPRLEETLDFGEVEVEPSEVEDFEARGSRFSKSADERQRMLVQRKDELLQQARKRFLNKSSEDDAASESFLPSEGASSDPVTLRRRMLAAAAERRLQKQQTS
UniProt Q9R049: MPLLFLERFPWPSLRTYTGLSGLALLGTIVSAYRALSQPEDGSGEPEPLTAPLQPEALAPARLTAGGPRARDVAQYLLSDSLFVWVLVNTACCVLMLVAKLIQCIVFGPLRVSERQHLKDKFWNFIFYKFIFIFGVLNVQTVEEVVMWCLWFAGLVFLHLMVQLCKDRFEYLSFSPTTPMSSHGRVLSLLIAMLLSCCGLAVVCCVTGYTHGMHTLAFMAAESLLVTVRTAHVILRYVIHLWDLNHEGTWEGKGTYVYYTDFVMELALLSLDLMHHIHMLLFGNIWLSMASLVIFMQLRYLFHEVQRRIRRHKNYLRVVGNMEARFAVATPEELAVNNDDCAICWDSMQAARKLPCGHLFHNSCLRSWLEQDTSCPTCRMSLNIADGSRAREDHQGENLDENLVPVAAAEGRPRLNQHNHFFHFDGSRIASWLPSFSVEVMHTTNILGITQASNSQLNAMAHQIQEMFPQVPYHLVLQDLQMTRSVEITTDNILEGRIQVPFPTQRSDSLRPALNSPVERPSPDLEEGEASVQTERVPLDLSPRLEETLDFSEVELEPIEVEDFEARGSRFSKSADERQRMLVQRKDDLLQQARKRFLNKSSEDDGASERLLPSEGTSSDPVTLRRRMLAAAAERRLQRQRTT
UniProt P20029, residues 20-655: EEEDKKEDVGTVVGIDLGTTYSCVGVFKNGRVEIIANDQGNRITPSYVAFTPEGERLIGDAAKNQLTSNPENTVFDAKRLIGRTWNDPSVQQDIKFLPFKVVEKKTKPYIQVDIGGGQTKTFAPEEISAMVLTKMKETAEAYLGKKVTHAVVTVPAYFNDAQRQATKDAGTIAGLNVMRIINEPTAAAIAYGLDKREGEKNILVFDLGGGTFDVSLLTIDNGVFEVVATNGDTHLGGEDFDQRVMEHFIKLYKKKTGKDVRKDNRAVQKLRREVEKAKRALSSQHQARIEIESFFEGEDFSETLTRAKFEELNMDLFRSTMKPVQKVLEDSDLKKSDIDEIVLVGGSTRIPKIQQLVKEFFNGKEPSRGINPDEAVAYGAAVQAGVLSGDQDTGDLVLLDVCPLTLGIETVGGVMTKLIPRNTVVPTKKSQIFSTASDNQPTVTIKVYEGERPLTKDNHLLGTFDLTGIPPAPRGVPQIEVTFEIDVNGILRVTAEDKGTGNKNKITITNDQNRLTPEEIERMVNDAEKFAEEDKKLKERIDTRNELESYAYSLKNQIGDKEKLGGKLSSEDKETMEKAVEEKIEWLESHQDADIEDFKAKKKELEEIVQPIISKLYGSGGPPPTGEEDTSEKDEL

The target of test [1] is T1, liver-specific zona pellucida domain-containing protein (LZP), ectopic, in HepG2 cells (UniProt Q8WWZ8).
T1 sequence: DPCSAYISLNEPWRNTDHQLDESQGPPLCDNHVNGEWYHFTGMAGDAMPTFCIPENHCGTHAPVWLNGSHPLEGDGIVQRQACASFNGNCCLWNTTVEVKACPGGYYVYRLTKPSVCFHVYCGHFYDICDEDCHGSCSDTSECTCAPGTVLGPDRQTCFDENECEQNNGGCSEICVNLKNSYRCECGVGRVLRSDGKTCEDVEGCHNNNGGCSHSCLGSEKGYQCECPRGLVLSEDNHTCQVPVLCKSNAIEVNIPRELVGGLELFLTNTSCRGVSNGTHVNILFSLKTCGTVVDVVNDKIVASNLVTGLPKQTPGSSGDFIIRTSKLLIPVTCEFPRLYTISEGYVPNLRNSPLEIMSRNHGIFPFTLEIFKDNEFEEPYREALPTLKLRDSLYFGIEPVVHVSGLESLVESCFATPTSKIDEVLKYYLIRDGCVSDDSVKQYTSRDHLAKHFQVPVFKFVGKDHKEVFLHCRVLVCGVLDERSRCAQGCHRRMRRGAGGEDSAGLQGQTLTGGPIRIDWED
The experiment in a line: co-IP; reciprocal co-immunoprecipitation with indicated antibodies in HepG2 cells ectopically expressing AMFR and LZP.

Test [2] addresses T1, liver-specific zona pellucida domain-containing protein (LZP), ectopic, in HepG2 cells. The experiment in a line: co-IP; reciprocal co-immunoprecipitation of ectopic LZP and apoB in mouse hepatocytes and in HepG2 cells overexpressing LZP.
The target of test [3] is T2, liver-specific zona pellucida domain-containing protein (LZP), endogenous, mouse hepatocytes (mouse (endogenous in mouse hepatocytes)) (UniProt Q8R4V5).
T2 sequence: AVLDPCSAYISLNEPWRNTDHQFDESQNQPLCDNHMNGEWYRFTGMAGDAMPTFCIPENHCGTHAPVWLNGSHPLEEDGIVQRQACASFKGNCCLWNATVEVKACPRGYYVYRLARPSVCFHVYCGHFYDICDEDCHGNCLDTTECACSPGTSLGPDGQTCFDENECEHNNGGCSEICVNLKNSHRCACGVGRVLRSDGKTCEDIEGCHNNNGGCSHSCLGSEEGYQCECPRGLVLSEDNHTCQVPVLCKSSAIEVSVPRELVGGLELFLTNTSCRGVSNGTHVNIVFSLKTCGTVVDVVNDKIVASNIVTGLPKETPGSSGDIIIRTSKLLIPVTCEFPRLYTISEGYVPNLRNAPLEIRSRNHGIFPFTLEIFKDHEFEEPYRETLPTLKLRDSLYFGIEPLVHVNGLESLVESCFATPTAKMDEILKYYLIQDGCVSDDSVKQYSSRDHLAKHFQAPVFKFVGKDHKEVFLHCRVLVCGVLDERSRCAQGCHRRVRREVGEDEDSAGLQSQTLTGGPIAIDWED
The experiment in a line: co-IP; co-immunoprecipitation of LZP with apoB, MTTP or BIP in hepatocytes isolated from WT mice.

Test [4] concerns the target T3, liver-specific zona pellucida domain-containing protein (LZP), ectopic, in mouse hepatocytes (mouse) (UniProt Q8R4V5).
T3 sequence: T2 sequence
The experiment in a line: co-IP; reciprocal co-immunoprecipitation of ectopic LZP and apoB in mouse hepatocytes and in HepG2 cells overexpressing LZP.

Test [5] addresses apolipoprotein B (apoB), endogenous, mouse hepatocytes or liver (mouse (endogenous in mouse hepatocytes)) (UniProt E9Q414). Put plainly: co-IP; apoB immunoprecipitated, AMFR blotted; liver or hepatocytes of WT and Lzp-/- mice.

No constants are given. Whether binding was seen depends on the method and setting. In cells and extracts the contact can be indirect. Some entries that bind do so weakly or less than the wild type. For part of these data: Sequences can lack the tags named with a protein.

“AMFR (E3 ligase gp78), ectopic, in HepG2 cells (from UniProt Q9UKV5 1-643) (enzyme)”: in test [1], the binding entry is “binds”. As to “apolipoprotein B (apoB), endogenous, HepG2 cells (from UniProt P04114 28-4563)”, the binding result in test [2] was “binds”.

On to “apolipoprotein B (apoB), endogenous, mouse hepatocytes or liver (from UniProt E9Q414 28-4505)”, for which the binding result in test [3] and in test [4] was “binds” each time.

In the case of “AMFR (E3 ligase gp78), endogenous, mouse liver or hepatocytes (from UniProt Q9R049 1-643) (enzyme)”, the binding result in test [5] is “binds”. On to “BIP, ER-resident luminal chaperone, mouse hepatocytes (from UniProt P20029 20-655)”, for which the binding result in test [3] was “binds”.
